# From PubChem BioAssay AID1347076 (National Center for Advancing Translational Sciences (NCATS), 2019)
# Hit rate of the full screen: of about 400,000 compounds, about 13,000 (3.2%) were called active. The inconclusive results got no clear call from the source; some entries with a clear call stand among them for comparison. The call rests on the fitted dose curve; in most records, active means well fitted cell-killing curve with a large enough effect; inconclusive means small, poorly fitted or top-dose-only effect, or effect the other way; inactive means flat fitted curve, though single readings scatter. A potency beside an inconclusive call is a rough fit, not a confirmed value.
# Experiment: qHTS assay for MDR1-selective chemotherapeutics: Primary screen using the drug-selected MDR subline cells KB-V1; further: nearly all actives have a fitted effect of over 60% in size
# Conditions: KB-V1 MDR cells viability, CellTiter-Glo, 72 h; series mostly up to 46.1 µM
# Outline: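 Cytotoxicity via CellTiter-Glo luminescence after 72 h compound exposure at 37 degrees C. Cells: drug-selected KB-V1 line, DMEM phenol-red free plus 10% FBS. Compounds tested at multiple concentrations; normalized data fitted to concentration-effect curves.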
# Potency means the concentration at half of the fitted maximal effect.
row,SMILES,Potency
1,O=C(C1CCCCN1S(=O)(=O)c1ccccc1[N+](=O)[O-])N1CCCCC1 (stereo not given),"inconclusive: 29.1 µM [cytotoxic, single point]"
2,COc1ccccc1CNC(=O)CN1C(=O)CCn2nc(-c3ccccc3)cc21,inactive
3,CC1Cc2ccccc2N1C(=O)CSc1nnc(-c2ccc(S(=O)(=O)N3CCCC3)cc2)n1C (stereo not given),active: 16.4 µM
4,O=C(CSC1=Nc2ccccc2N=C(c2ccc(F)cc2)C1)NCc1ccc(Cl)cc1,inactive
5,O=C(Nc1ccc2nc(-c3cccs3)c(-c3cccs3)nc2c1)N1CCCCC1,inactive
6,CC1CC(C)CN(C(=O)C2CCN(S(=O)(=O)c3cccc4cccnc34)CC2)C1 (stereo not given),inactive
7,Cc1oc(-c2cc3c(cc2Cl)OCO3)nc1CN1CCCC1c1ccc(F)cc1 (stereo not given),"inconclusive: 7.31 µM [cytotoxic, partial curve]"
8,CCCCN1C(C)=CC(=C2C(=O)c3ccccc3C2=O)C=C1C,"inconclusive: 2.31 µM [cytotoxic, partial curve, poor fit]"
9,Cn1c(SCC(=O)NC2CCCCC2)nnc1-c1cccc(N)c1,"inconclusive: 0.0046 µM [rising, full curve, poor fit]"
10,COc1ccc(-c2nnc3sc(-c4ccco4)nn23)cc1OC,active: 2.06 µM
11,CCCCCNC(=O)CCn1c(=O)[nH]c2ccccc2c1=O,inactive
12,CCOC(=O)N1CCN(C(=O)COc2ccc(Br)cc2Cl)CC1,active: 7.31 µM
13,COc1ccc(-c2c(C#Cc3ccccc3)c3ccccc3n2C)cc1,"inconclusive: 20.6 µM [rising, single point]"
14,CCOC(=O)N1CCC(NC(=O)c2cc(S(=O)(=O)N3CCOCC3)ccc2F)CC1,inactive
15,CN(C(=O)CN(CCO)CC(=O)N(C)C(C)(C)Cc1ccccc1)C(C)(C)Cc1ccccc1,"inconclusive: 5.8 µM [cytotoxic, full curve]"
16,Cc1ccc(C(=O)NC(C)(COc2nonc2C)COc2nonc2C)cc1,"inconclusive: 8.2 µM [cytotoxic, partial curve]"
17,CCOc1ccc(N(CC(=O)Nc2ccccc2C(=O)NC(C)CC)S(C)(=O)=O)cc1 (stereo not given),"inconclusive: 8.2 µM [cytotoxic, partial curve]"
18,COc1ccc(/C=C/c2nc3ccccc3c(=O)n2-c2cccc(C(F)(F)F)c2)cc1,"inconclusive: 29.1 µM [cytotoxic, single point]"
19,O=C1c2ccccc2C(=O)N1CC(O)COc1ccc(Cl)cc1 (stereo not given),"inconclusive: 5.17 µM [rising, partial curve]"
20,O=C(CCS(=O)(=O)c1ccc(Cl)cc1)N1CCN(S(=O)(=O)c2cccs2)CC1,"inconclusive: 20.6 µM [cytotoxic, partial curve]"

# Shown bar-delimited: two of the compounds above
row | SMILES | Potency
11 | CCCCCNC(=O)CCn1c(=O)[nH]c2ccccc2c1=O | inactive
12 | CCOC(=O)N1CCN(C(=O)COc2ccc(Br)cc2Cl)CC1 | active: 7.31 µM
